Test results as given in publication PMC9110732.
No constants are given. Whether binding was seen depends on the method and setting. In cells and extracts the contact can be indirect. Some binding calls cover weakened binding; strength is not graded here.

Molecular target: T1, trans-2,3-enoyl-CoA reductase-like (TECRL) (human (endogenous in hiPSC-CMs)) (UniProt Q5HYJ1)
T1 sequence: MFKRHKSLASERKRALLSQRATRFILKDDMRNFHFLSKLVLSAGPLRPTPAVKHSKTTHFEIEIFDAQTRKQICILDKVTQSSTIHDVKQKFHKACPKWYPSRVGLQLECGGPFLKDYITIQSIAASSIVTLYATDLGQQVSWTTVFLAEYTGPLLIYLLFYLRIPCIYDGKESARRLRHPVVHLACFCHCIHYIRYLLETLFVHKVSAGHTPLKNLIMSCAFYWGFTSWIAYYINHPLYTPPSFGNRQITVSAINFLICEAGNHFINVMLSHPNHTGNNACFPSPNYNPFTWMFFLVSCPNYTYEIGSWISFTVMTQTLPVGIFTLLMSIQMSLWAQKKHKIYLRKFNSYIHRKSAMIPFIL
Experiment: co-IP; co-immunoprecipitation of TECRL and ATPB in hiPSC-CMs with and without TECRL overexpression, read by blot (n = 3)

- binding: binds
Substance: ATP synthase subunit beta, mitochondrial (ATPB) (from UniProt P06576 48-529)
